Assay results reported in patent WO2016030488A1.
No constants are given. Whether binding was seen depends on the method and setting. Binding can be weak; no strength is given.

What was measured:
[1] = target: human KIR3DL2 polypeptide, wild type (allele *002) (human); assay: flow cytometry competition on HUT78 cells
[2] = target: human KIR3DL2 polypeptide, wild type (allele *002) (human); assay: binding to cells transfected with wild type KIR3DL2
[3] = target: human KIR3DL2 polypeptide, wild type (allele *002) (human); assay: flow cytometry screen on HUT78, COU-L and HEK-293T/KIR3DL2 Domain 0 - eGFP cells

Measured: binding

B1: antibody 19H12 (antibody, V domains shown)
VH: QIQLVQSGPELKKPGETVKISCKASGYTFTNFGMNWVKQAPGKGLKWMGWINTYTGEPTYADDFKGRFAFSLETSASTAYLQINNLKNEDMATYFCARNGNFGYYFDYWGQGTTLTVSS
VL: DVLMTQTPLSLPVSLGDQASFSCRSSQNIVHSNGNTYLEWYLQKPGQSPSLLIYKVSNRFSGVPDRFSGSGSGTDFTLKITRVEAEDLGVYYCFQGSHVPFTFGSGTKLEIK
binds: all assays above
